According to US20200333357A1, “NOVEL TFEB PATHWAY AGONISTS FOR METABOLIC DISEASES AND AGEING” (The Board of Regents of the University of Texas System, priority 2017, published 2020):
Where a name gives a salt, the structure may show the parent alone. At least one structure is not confirmed: it was looked up by name or label, or the drawing left a doubt. Some entries share one result that the patent states for a list of compounds.

How the values were obtained:
[1] = In vitro compound release from PEG-PLA micelle (dialysis); assay type: physicochemical; conditions: from PEG5000-PLA5000 micelle, 1×PBS with 1% Tween 80
TFEB = assay: GFP-TFEB nuclear translocation (high-content screen, dose-response, confocal imaging); assay type: cell-based, human; conditions: compounds added for 4 hr, overlap with top 30 hits of autophagy screen
Protocol: GFP-TFEB HeLa cells were seeded in 384-well plates. Compounds were added for 4 hr the following day. Bafilomycin A1 (250 nM) treated cells were used as positive controls and DMSO-treated cells as negative controls. […] Images were collected using 405 nm and 488 nm laser lines with DAPI and FITC emission filters. Images were analyzed using the GE IN Cell Analyzer Workstation software. Briefly, nuclei were segmented using the Hoechst channel and the cytoplasm was segmented using the GFP channel. For each cell, the mean GFP intensity in each compartment was measured and used to calculate the nuclear to cytoplasmic (N/C) TFEB-GFP ratio. The same method as mentioned above was used to generate the top 30 compounds with highest condensed activity values and robust Z score values.
GFP-TFEB HeLa cells treated with compounds or DMSO were fixed and stained with Hoechst. Images from at least 3 different fields per sample were acquired using a 40× objective on a Zeiss confocal microscope and analyzed with ImageJ. 20-30 cells were evaluated from each image for each sample, and 3 independent experiments were performed to generate the graphed values.

Structure (SMILES) | duration of controlled and sustained release [1] | hit status in the TFEB screen overlapping with the autophagy (GFP-LC3) screen (TFEB) | hit status in the TFEB screen overlapping with the autophagy (GFP-LC3) screen (TFEB; listed as digoxingenin)
CCCCC(CC)CNC(=N)NC(=N)NCCCCCCNC(=N)NC(=N)NCC(CC)CCCC (stereo not shown) [AD, alexidine dihydrochloride] | more than 2 days |  | 
CC[C@H]1[C@@H]2C=C[C@@H]3[C@H]4C/C=C\C(=O)NCCC[C@@H]5NC(=O)/C(=C(O)/C=C/[C@@H]4C[C@@H]3[C@H]2C[C@H]1C)C5=O [IKA, ikarugamycin] | more than 2 days |  | 
C[C@]12CC[C@H](O)C[C@H]1CC[C@@H]1[C@@H]2C[C@@H](O)[C@]2(C)[C@@H](C3=CC(=O)OC3)CC[C@]12O [digoxigenin] |  | top scoring hits | top 18 hits
